Data from publication doi:10.1101/2021.08.06.455383.
Results are given in words; binding and its absence hold for the method and conditions named. In cells and extracts the contact can be indirect. Some entries that bind do so weakly or less than the wild type. Sequences can lack the tags named with a protein.

The chains behind the UniProt entries cited, without tags or fusion partners.
UniProt P62258, whole entry: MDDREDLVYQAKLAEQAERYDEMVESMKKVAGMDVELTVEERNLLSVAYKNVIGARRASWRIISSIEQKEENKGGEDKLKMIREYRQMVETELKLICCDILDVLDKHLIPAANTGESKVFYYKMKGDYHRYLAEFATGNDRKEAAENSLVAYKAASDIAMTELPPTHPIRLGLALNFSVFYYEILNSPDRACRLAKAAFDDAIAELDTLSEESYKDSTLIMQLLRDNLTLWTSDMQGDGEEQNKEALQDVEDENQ

Key:
[1] = target: T1, HA-tagged iRhom2 wild type, in iRhom1/2 DKO A549 cells (UniProt Q6PJF5); assay: co-IP
T1 sequence: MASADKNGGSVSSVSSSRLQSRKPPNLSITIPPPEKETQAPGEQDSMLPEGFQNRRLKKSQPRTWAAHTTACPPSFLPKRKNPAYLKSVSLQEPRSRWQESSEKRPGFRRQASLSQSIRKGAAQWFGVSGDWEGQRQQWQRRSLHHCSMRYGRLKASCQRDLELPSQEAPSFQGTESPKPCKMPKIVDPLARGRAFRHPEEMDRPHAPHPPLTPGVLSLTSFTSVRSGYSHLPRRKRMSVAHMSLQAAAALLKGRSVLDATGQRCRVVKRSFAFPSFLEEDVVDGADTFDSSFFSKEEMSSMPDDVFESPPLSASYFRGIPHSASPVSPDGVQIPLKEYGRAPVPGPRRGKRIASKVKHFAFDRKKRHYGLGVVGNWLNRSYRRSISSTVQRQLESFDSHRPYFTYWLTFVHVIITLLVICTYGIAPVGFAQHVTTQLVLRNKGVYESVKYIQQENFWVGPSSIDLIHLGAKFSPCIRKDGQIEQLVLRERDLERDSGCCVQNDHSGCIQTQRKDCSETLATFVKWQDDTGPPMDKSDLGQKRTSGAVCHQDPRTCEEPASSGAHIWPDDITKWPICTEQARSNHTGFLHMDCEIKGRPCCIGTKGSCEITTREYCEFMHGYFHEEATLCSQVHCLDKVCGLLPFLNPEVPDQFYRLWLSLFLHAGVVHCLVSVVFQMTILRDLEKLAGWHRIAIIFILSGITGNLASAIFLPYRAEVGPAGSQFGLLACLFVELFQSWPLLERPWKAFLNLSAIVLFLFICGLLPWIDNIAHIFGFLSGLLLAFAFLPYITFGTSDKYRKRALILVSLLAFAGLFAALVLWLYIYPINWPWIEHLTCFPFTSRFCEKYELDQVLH

[2] = target: T2, HA-tagged iRhom2 wild type, in iRhom1/2 DKO HEK293T cells (UniProt Q6PJF5); assay: co-IP
T2 sequence: T1 sequence

binding [1]	binding [2]	Substance
binds	–	14-3-3 epsilon, endogenous in A549 cells (from UniProt P62258 1-255)
–	binds	14-3-3 epsilon, endogenous in HEK293T cells (from UniProt P62258 1-255)
